# Data taken from PMC10400976.
# Amino acid sequences for entries named in this document (tags omitted). A change or cut given only in a name is not applied to a line headed by its entry.
# UniProt P11021: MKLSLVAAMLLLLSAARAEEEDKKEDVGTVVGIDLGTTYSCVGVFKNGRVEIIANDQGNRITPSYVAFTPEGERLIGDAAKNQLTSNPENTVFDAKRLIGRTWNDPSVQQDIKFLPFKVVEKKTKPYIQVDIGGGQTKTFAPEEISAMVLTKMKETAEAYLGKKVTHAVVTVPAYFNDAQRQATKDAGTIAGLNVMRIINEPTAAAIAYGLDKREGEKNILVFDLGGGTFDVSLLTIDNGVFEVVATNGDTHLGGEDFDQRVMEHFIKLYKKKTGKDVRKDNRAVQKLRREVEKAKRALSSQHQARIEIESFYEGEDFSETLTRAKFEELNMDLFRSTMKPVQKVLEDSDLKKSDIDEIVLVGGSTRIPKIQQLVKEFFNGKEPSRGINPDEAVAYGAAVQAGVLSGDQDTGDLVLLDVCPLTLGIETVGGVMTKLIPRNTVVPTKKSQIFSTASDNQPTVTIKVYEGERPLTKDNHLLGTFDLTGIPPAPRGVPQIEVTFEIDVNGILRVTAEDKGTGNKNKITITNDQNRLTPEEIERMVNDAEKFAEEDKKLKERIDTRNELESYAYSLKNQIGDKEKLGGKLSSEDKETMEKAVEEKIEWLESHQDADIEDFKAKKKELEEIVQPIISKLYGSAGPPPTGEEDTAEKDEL
# No constants are given. Whether binding was seen depends on the method and setting. In cells and extracts the contact can be indirect. Binding can be weak; no strength is given. Where a sequence is shown, tags or fusion partners need not be part of it.
# Biological target: T1, ID2-Myc-FLAG (Inhibitor of DNA binding 2, epitope-tagged) (UniProt Q02363)
# T1 sequence: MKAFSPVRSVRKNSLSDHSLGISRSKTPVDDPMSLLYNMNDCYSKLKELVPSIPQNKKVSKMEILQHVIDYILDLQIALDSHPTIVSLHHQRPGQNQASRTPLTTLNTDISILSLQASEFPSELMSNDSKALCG
# Test: co-IP; ID2-Myc-FLAG and F-78(WT) both overexpressed; IP with anti-Myc antibody
substance,measurement,value
"F-78(WT), FLAG-tagged GRP78 (from UniProt P11021)",binding,binds
